Non-standard residues stand in square brackets, D forms with d. No end group written: not given here. Nle = CCCC[C@H](N)C(=O)O; βAla = NCCC(=O)O
Test: peptide made by a vendor (Fmoc solid-phase peptide synthesis)
Settings: whole synthesis

Going from “H-DSFV[βAla]L[Nle]-NH2 (N-terminus assumed; SMILES CCCC[C@H](NC(=O)[C@H](CC(C)C)NC(=O)CCNC(=O)[C@@H](NC(=O)[C@H](Cc1ccccc1)NC(=O)[C@H](CO)NC(=O)[C@@H](N)CC(=O)O)C(C)C)C(N)=O)” to Asp-Ser-Phe-Val-gc-Nle-NH2, the “final HPLC purity” value rises from 95.0% to 96.3%.

Going from Asp-Arg-Phe-Val-gc-Nle-NH2 to Asp-Arg-Phe-Val-gc-Met-NH2, the “final HPLC purity” value falls from 97.4% to 97.2%.

First: Asp-Lys-Phe-Val-gc-Nle-NH2
Second: KDSFV[βAla]L[Nle]-NH2
The “final HPLC purity” value of the first is lower: 97.9% for the first, 98.6% for the second.

First: Asp-Lys-Phe-Val-gc-Met-NH2
Second: Asp-Ser-Phe-Val-gc-Met-NH2
The “final HPLC purity” value of the first is higher: 97.3% for the first, 96.7% for the second.

Going from “H-KDSFV[βAla]LM-NH2 (N-terminus assumed; SMILES CSCC[C@H](NC(=O)[C@H](CC(C)C)NC(=O)CCNC(=O)[C@@H](NC(=O)[C@H](Cc1ccccc1)NC(=O)[C@H](CO)NC(=O)[C@H](CC(=O)O)NC(=O)[C@@H](N)CCCCN)C(C)C)C(N)=O)” to Lys-Asp-Ser-Phe-Val-gc-Nle-NH2, the “final HPLC purity” value rises from 97.0% to 98.3%.

Reference: US20230374071A1 (Dignify Therapeutics, LLC, priority 2020, published 2023)
